In publication PMC7246916, “14-3-3 Proteins and Other Candidates form Protein-Protein Interactions with the Cytosolic C-terminal End of SOS1 Affecting Its Transport Activity” (International Journal of Molecular Sciences, 2020):
These are yes or no findings as the source states them, for the method shown. In cells and extracts the contact can be indirect. Here binding means that the protein was enriched with, or labelled near, the bait; the list need not be complete. Where a sequence is shown, tags or fusion partners need not be part of it.

The chains behind the UniProt entries cited, without tags or fusion partners.
UniProt P25696: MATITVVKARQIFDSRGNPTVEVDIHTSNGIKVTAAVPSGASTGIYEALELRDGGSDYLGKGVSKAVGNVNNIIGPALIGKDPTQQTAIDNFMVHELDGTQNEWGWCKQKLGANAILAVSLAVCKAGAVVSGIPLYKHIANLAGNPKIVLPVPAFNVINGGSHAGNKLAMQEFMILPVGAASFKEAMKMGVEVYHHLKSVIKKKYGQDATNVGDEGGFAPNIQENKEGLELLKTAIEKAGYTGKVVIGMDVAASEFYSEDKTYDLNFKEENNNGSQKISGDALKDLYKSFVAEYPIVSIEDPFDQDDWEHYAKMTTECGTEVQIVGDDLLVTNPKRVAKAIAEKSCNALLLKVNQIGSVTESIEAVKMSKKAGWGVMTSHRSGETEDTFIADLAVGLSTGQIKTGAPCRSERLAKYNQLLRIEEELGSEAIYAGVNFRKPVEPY
UniProt P23686: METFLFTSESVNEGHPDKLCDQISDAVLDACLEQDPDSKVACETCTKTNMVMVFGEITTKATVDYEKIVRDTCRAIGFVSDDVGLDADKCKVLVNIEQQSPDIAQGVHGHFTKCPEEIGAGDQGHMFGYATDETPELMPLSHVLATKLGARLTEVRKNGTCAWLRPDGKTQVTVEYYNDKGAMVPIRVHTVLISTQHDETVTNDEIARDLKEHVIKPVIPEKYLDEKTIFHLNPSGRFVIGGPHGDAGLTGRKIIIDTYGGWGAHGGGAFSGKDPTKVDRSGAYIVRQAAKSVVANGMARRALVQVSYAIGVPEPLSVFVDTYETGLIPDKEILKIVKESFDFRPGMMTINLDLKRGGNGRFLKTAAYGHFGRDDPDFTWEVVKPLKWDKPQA

T1: GST-tagged AtSOS1 C-terminus (aa978-1146) (Arabidopsis thaliana) (UniProt Q9LKW9)
T1 sequence: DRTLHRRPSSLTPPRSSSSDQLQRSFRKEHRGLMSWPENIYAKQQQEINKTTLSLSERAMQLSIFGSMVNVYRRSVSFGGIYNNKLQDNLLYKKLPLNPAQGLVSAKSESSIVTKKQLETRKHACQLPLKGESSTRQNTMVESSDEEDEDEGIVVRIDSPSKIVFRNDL

B1: 14-3-3 like protein isoform omega (ω) (protein, UniProt Q01525 1-259)
chain: MASGREEFVYMAKLAEQAERYEEMVEFMEKVSAAVDGDELTVEERNLLSVAYKNVIGARRASWRIISSIEQKEESRGNDDHVTAIREYRSKIETELSGICDGILKLLDSRLIPAAASGDSKVFYLKMKGDYHRYLAEFKTGQERKDAAEHTLAAYKSAQDIANAELAPTHPIRLGLALNFSVFYYEILNSPDRACNLAKQAFDEAIAELDTLGEESYKDSTLIMQLLRDNLTLWTSDMQDDAADEIKEAAAPKPTEEQQ
B2: 14-3-3 like protein isoform phi (φ) (protein, UniProt P46077 1-267)
chain: MAAPPASSSAREEFVYLAKLAEQAERYEEMVEFMEKVAEAVDKDELTVEERNLLSVAYKNVIGARRASWRIISSIEQKEESRGNDDHVTTIRDYRSKIESELSKICDGILKLLDTRLVPASANGDSKVFYLKMKGDYHRYLAEFKTGQERKDAAEHTLTAYKAAQDIANAELAPTHPIRLGLALNFSVFYYEILNSPDRACNLAKQAFDEAIAELDTLGEESYKDSTLIMQLLRDNLTLWTSDMQDESPEEIKEAAAPKPAEEQKEI
B3: 14-3-3 like protein isoform kappa (κ) (protein, UniProt P48348 1-248)
chain: MATTLSRDQYVYMAKLAEQAERYEEMVQFMEQLVSGATPAGELTVEERNLLSVAYKNVIGSLRAAWRIVSSIEQKEESRKNEEHVSLVKDYRSKVETELSSICSGILRLLDSHLIPSATASESKVFYLKMKGDYHRYLAEFKSGDERKTAAEDTMIAYKAAQDVAVADLAPTHPIRLGLALNFSVFYYEILNSSEKACSMAKQAFEEAIAELDTLGEESYKDSTLIMQLLRDNLTLWTSDMQEQMDEA
B4: 14-3-3 like protein isoform upsilon (υ) (protein, UniProt P42645 1-268)
chain: MSSDSSREENVYLAKLAEQAERYEEMVEFMEKVAKTVETEELTVEERNLLSVAYKNVIGARRASWRIISSIEQKEDSRGNSDHVSIIKDYRGKIETELSKICDGILNLLEAHLIPAASLAESKVFYLKMKGDYHRYLAEFKTGAERKEAAESTLVAYKSAQDIALADLAPTHPIRLGLALNFSVFYYEILNSSDRACSLAKQAFDEAISELDTLGEESYKDSTLIMQLLRDNLTLWTSDLNDEAGDDIKEAPKEVQKVDEQAQPPPSQ
B5: adenosyl-homocysteinease2 (enzyme, UniProt Q9LK36 1-485)
chain: MALLVEKTSSGREYKVKDMSQADFGRLEIELAEVEMPGLVSCVTEFGPSQPLKGARITGSLHMTIQTAVLIETLTALGAEVRWCSCNIFSTQDHAAAAIARDSAAVFAWKGETLQEYWWCTERALDWGPGGGPDLIVDDGGDATLLIHEGVKAEEIFAKNGTFPDPTSTDNPEFQIVLSIIKDGLQVDPKKYHKMKERLVGVSEETTTGVKRLYQMQETGALLFPAINVNDSVTKSKFDNLYGCRHSLPDGLMRATDVMIAGKVAVICGYGDVGKGCAAAMKTAGARVIVTEIDPICALQALMEGLQVLTLEDVVSEADIFCTTTGNKDIIMVDHMRKMKNNAIVCNIGHFDNEIDMLGLETYPGVKRITIKPQTDRWVFPDTNSGIIVLAEGRLMNLGCATGHPSFVMSCSFTNQVIAQLELWNEKSSGKYEKKVYVLPKHLDEKVAALHLGKLGARLTKLTKDQSDYVSIPVEGPYKPVHYRY

These molecules were tested against T1, GST-tagged AtSOS1 C-terminus (aa978-1146) (Arabidopsis thaliana) (assay: affinity purification with mass spectrometry; purified GST-SOS1 C-term (aa978-1146) coupled to Affi-gel10, incubated with a soluble protein extract from Arabidopsis leaves; washed with PBS, eluted with PBS containing 1% SDS, SDS-PAGE slices identified by mass spectrometry; GST alone as control column; only the target purified).

binding, binds:
enolase2 (from UniProt P25696 1-444) (enzyme), delta-1-pyrroline-5-carboxylate synthase (P5CS) (enzyme), S-adenosylmethionine synthase1 (from UniProt P23686 1-393) (enzyme), B1, B2, B3, B4, B5
